This is one part of the list.
Legend:
Experiment in all cases: log2 fold change, soluble protein after heating vs DMSO (PISA); higher = thermal stabilisation; K562 cells, 10 uM, 30 min; active = over 0.2 and 3.5 SD of the protein, either way, in both replicates (recomputed)
[1] = compound: CS(=O)(=O)c1ccc(-c2cnc(N)c(C(=O)Nc3ccccc3)n2)cc1
Summary of the method: (§1)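 K562 cells at 2×10^6 cells/mL were given 10 μM compound for 30 min. Aliquots then went through 3 min of heating across 48°C-58°C, were pooled, and were extracted in PBS with 0.5% NP-40 at 4°C, and the supernatant after 21,000xg for 90 min was quantified by TMTpro 16plex LC-MS/MS with channel sums equalised. Thermal stability relative to control samples, from duplicates, is given as log2 fold change.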

Chains of the proteins cited; added tags and fusions are not shown. Lines headed by an entry give the natural chain unless they say otherwise; changes in a name come on top.
UniProt O43808: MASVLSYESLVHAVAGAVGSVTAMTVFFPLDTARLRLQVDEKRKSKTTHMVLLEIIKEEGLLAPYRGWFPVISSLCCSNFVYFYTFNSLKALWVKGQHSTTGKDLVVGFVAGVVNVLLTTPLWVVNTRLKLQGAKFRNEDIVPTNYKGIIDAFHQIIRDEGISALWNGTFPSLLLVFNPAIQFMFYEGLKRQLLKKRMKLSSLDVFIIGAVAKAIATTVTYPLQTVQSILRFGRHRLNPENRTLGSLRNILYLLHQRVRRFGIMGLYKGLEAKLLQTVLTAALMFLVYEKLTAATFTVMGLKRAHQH
UniProt P30825: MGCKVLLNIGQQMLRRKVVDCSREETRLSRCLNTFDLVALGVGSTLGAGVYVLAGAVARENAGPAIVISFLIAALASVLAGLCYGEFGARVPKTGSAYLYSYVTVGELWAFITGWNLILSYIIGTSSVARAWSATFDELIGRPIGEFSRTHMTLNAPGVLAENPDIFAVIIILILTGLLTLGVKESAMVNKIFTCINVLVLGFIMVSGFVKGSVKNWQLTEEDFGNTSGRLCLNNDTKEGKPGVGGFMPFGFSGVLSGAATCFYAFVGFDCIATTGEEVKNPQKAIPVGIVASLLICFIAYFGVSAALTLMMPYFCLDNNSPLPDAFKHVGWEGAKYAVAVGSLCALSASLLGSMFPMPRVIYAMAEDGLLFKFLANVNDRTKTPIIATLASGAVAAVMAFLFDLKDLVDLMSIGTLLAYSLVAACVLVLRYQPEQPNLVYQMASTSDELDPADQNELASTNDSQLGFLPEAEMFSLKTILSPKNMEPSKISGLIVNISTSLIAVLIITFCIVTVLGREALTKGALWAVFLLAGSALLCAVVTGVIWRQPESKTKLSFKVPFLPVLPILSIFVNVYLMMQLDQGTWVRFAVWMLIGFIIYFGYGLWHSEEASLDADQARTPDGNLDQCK
UniProt Q8TBP6: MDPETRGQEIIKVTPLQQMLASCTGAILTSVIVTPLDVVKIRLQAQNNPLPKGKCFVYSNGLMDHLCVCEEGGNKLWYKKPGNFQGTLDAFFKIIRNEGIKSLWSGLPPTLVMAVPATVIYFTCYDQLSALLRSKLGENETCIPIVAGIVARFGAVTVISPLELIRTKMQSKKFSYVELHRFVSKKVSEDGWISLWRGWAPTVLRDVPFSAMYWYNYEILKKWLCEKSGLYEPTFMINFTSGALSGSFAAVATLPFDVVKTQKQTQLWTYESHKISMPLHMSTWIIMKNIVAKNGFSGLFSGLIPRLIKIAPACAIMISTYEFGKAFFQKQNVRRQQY
UniProt Q96EP9: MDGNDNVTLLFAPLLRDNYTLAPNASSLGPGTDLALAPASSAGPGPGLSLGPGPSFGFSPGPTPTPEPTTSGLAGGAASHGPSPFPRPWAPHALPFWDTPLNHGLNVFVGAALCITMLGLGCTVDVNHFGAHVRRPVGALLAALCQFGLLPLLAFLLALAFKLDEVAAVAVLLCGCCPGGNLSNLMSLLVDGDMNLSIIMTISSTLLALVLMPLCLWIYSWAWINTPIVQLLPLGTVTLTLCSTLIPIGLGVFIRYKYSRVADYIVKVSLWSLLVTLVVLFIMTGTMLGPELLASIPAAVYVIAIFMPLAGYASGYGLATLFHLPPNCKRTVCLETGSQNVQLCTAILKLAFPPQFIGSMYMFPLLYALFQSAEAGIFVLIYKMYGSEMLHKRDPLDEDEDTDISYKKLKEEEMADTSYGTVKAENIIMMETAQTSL
UniProt Q9UP95: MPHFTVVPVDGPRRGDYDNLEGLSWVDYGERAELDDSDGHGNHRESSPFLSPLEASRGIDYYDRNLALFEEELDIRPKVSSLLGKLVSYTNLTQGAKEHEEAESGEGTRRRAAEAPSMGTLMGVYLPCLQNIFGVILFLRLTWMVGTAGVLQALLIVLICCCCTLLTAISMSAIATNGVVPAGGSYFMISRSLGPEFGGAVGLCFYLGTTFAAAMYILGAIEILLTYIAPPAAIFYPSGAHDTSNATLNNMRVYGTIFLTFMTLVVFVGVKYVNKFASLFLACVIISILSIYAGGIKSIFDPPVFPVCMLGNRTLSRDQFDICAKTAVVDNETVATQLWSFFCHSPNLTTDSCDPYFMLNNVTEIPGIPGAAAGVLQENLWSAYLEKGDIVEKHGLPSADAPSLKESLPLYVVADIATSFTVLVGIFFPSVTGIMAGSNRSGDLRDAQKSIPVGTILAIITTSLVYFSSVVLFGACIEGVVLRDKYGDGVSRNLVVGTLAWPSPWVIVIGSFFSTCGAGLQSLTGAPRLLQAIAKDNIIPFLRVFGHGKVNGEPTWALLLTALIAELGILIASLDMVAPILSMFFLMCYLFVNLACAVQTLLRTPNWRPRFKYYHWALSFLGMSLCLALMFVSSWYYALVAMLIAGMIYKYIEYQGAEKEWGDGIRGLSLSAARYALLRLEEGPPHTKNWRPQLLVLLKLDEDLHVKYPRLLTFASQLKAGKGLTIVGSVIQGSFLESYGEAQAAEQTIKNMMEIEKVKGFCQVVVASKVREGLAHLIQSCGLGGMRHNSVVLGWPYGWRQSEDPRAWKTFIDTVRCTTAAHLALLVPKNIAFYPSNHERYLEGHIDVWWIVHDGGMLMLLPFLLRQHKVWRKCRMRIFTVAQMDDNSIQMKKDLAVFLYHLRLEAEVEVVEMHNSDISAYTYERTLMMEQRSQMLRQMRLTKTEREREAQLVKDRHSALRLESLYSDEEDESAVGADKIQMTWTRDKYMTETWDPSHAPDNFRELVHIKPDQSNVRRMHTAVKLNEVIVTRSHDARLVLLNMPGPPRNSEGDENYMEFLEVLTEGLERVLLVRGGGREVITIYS
UniProt Q14542: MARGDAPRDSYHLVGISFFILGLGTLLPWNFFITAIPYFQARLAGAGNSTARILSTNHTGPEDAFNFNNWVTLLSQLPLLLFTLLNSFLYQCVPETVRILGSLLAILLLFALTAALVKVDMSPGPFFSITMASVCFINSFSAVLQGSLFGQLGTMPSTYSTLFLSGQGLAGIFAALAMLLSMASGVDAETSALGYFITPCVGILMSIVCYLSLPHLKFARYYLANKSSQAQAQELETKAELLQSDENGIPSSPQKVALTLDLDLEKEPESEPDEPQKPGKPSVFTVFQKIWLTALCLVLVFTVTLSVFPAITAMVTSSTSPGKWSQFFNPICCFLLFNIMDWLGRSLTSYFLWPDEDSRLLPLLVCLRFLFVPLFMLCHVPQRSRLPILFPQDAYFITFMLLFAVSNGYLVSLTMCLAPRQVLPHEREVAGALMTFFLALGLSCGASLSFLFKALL
UniProt Q9BWU0: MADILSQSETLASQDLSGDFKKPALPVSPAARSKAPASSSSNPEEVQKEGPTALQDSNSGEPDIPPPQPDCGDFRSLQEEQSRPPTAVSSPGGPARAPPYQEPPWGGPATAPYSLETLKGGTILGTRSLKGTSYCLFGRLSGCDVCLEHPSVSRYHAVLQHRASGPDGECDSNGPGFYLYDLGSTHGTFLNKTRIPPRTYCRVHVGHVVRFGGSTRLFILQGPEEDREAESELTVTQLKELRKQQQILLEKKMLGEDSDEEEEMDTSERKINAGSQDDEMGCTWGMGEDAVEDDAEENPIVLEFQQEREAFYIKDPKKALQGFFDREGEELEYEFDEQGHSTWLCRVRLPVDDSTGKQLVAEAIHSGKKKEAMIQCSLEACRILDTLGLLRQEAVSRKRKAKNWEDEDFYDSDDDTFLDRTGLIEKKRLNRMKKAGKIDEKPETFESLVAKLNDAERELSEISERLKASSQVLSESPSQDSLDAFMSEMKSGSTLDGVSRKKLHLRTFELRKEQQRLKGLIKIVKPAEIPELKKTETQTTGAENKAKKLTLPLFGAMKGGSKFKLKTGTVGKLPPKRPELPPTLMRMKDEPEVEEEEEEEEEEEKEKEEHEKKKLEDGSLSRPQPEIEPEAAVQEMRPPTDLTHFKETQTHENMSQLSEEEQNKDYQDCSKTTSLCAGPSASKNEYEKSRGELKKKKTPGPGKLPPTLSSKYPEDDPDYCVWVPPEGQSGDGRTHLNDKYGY
UniProt Q00325: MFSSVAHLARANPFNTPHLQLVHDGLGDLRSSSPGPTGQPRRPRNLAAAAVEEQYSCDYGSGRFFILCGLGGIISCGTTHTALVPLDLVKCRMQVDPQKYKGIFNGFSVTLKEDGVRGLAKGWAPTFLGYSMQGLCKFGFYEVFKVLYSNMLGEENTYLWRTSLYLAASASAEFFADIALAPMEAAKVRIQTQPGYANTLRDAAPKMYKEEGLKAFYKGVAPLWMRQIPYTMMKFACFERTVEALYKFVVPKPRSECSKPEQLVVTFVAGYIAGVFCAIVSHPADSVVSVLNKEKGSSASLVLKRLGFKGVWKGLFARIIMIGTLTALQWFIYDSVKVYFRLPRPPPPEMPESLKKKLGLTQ
UniProt Q9ULF5: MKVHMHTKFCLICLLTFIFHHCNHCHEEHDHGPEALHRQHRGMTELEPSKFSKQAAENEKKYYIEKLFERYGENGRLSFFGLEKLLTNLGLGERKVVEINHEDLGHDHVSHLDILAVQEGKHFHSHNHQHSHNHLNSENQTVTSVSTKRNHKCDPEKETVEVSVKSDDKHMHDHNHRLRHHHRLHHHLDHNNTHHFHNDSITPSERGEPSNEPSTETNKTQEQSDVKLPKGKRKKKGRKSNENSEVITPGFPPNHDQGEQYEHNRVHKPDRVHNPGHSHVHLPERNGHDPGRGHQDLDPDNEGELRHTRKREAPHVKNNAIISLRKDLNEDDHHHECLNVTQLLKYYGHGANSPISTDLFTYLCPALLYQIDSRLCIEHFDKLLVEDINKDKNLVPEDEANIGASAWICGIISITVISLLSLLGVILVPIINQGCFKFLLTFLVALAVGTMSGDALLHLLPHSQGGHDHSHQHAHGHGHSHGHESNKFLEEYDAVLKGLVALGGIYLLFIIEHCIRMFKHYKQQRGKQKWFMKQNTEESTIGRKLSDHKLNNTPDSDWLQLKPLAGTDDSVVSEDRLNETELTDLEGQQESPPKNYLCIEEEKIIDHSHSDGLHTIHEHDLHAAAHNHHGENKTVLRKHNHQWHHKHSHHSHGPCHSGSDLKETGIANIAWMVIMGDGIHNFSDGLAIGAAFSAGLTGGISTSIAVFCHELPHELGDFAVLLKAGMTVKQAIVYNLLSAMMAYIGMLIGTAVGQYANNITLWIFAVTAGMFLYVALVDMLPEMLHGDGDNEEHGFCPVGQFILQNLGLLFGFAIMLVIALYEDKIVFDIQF
UniProt Q8IXU6: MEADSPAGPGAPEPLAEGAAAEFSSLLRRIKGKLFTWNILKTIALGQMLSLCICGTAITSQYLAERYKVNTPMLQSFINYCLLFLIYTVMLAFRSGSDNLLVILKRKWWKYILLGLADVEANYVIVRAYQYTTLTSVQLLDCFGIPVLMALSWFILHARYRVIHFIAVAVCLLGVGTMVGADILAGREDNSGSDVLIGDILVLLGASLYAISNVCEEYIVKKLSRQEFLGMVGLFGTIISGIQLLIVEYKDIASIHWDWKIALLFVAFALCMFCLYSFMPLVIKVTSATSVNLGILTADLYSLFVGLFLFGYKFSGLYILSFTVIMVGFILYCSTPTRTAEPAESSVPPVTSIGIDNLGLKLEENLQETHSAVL
UniProt O43772: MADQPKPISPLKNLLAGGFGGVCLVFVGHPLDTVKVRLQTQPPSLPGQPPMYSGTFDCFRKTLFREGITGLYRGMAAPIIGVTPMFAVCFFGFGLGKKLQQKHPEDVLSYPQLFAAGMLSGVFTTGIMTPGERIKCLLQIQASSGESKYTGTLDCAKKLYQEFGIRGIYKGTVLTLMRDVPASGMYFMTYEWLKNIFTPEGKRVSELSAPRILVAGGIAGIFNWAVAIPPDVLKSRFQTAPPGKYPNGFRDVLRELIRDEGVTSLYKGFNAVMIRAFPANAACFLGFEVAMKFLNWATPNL
UniProt Q08357: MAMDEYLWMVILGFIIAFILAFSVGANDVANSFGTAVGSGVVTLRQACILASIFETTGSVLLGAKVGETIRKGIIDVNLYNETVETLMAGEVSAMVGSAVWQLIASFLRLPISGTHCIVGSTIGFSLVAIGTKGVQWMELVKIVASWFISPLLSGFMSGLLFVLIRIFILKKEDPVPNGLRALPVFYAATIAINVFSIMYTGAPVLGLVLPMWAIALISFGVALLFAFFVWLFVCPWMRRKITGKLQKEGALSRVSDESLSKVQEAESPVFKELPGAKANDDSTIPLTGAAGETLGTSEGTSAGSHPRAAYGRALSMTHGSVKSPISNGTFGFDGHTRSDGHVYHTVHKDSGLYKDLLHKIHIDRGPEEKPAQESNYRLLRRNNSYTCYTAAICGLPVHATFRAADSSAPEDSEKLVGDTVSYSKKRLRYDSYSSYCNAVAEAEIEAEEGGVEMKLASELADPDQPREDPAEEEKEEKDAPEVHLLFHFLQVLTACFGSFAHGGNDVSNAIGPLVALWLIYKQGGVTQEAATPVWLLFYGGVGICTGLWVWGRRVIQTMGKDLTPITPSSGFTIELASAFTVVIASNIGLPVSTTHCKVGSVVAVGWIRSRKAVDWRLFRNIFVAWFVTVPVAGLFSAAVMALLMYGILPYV

crizotinib = compound: C[C@@H](Oc1cc(-c2cnn(C3CCNCC3)c2)cnc1N)c1c(Cl)ccc(F)c1Cl [crizotinib]
Summary of the method: as §1

[2] = compound: C[C@@H]1COCCN1C2=NC(=NC(=C2)C3(CC3)S(=O)(=O)C)C4=C5C=CNC5=CC=C4
Summary of the method: as §1

[3] = compound: C[C@H](C1=CC=C(C=C1)C(=O)NC2=C3C=CNC3=NC=C2)N
Summary of the method: as §1

duvelisib = compound: C[C@H](Nc1ncnc2nc[nH]c12)c1cc2cccc(Cl)c2c(=O)n1-c1ccccc1 [duvelisib]
Summary of the method: as §1

gandotinib = compound: Cc1cc(Nc2cc(CN3CCOCC3)c3nc(C)c(Cc4ccc(Cl)cc4F)n3n2)n[nH]1 [gandotinib]
Summary of the method: as §1

tozasertib = compound: Cc1cc(Nc2cc(N3CCN(C)CC3)nc(Sc3ccc(NC(=O)C4CC4)cc3)n2)n[nH]1 [tozasertib]
Summary of the method: as §1

[4] = compound: Cc1cc(SCc2sc(-c3ccc(C(F)(F)F)cc3)nc2C)ccc1OCC(=O)O
Summary of the method: as §1

doramapimod = compound: Cc1ccc(-n2nc(C(C)(C)C)cc2NC(=O)Nc2ccc(OCCN3CCOCC3)c3ccccc23)cc1 [doramapimod]
Summary of the method: as §1

ispinesib = compound: Cc1ccc(C(=O)N(CCCN)[C@@H](c2nc3cc(Cl)ccc3c(=O)n2Cc2ccccc2)C(C)C)cc1 [ispinesib]
Summary of the method: as §1

bafetinib = compound: Cc1ccc(NC(=O)c2ccc(CN3CC[C@H](N(C)C)C3)c(C(F)(F)F)c2)cc1Nc1nccc(-c2cncnc2)n1 [bafetinib]
Summary of the method: as §1

[5] = compound: Cc1cccc(CC(=O)N2CCc3c2ccc(-c2cn(C)c4ncnc(N)c24)c3F)n1
Summary of the method: as §1

nilotinib = compound: Cc1cn(-c2cc(NC(=O)c3ccc(C)c(Nc4nccc(-c5cccnc5)n4)c3)cc(C(F)(F)F)c2)cn1 [nilotinib]
Summary of the method: as §1

[6] = compound: Cc1nc(Nc2n[nH]c3c2CN(C(=O)N[C@H](CN(C)C)c2ccccc2)C3(C)C)c2sccc2n1
Summary of the method: as §1

dasatinib = compound: Cc1nc(Nc2ncc(C(=O)Nc3c(C)cccc3Cl)s2)cc(N2CCN(CCO)CC2)n1 [dasatinib]
Summary of the method: as §1

[7] = compound: Cc1ncc(-c2ccnc(Nc3ccc(S(C)(=O)=O)cc3)n2)n1C(C)C
Summary of the method: as §1

[8] = compound: Cn1cc(-c2ccc3c(c2)CCN3C(=O)Cc2cccc(C(F)(F)F)c2)c2c(N)ncnc21
Summary of the method: as §1

[9] = compound: Cn1cc(-c2ccc3nnc(C(F)(F)c4ccc5ncccc5c4)n3n2)cn1
Summary of the method: as §1

tipifarnib = compound: Cn1cncc1[C@@](N)(c1ccc(Cl)cc1)c1ccc2c(c1)c(-c1cccc(Cl)c1)cc(=O)n2C [tipifarnib]
Summary of the method: as §1

mubritinib = compound: FC(F)(F)c1ccc(/C=C/c2nc(COc3ccc(CCCCn4ccnn4)cc3)co2)cc1 [mubritinib]
Summary of the method: as §1

Measured: log2 fold change

SLC40A1 (UniProt Q9NP59)
inactive: [1] 0.06 | crizotinib 0.088 | [2] 0.095 | [3] -0.085 | duvelisib 0.093 | gandotinib -0.11 | tozasertib -0.095 | [4] -0.067 | doramapimod -0.073 | ispinesib -0.025 | bafetinib -0.071 | [5] -0.066 | nilotinib 0.046 | [6] -0.001 | dasatinib 0.059 | [7] 0.1 | [8] -0.012 | [9] -0.162 | tipifarnib -0.029 | mubritinib 0.108

SLC25A17 (UniProt O43808)
inactive: [1] 0.023 | crizotinib 0.071 | [2] 0.002 | [3] -0.127 | duvelisib -0.066 | gandotinib 0.024 | tozasertib 0.024 | [4] 0.008 | doramapimod 0.006 | ispinesib 0.052 | bafetinib 0.022 | [5] 0.032 | nilotinib 0.025 | [6] -0.015 | dasatinib -0.016 | [7] 0.003 | [8] 0.038 | [9] -0.002 | tipifarnib -0.056 | mubritinib 0.038

SLC7A1 (UniProt P30825)
inactive: [1] 0.044 | crizotinib -0.043 | [2] 0.043 | [3] -0.078 | duvelisib 0.088 | gandotinib -0.069 | tozasertib -0.014 | [4] -0.039 | doramapimod 0.001 | ispinesib -0.119 | bafetinib -0.008 | [5] -0.004 | nilotinib 0.009 | [6] -0.007 | dasatinib 0.034 | [7] 0.004 | [8] 0 | [9] -0.013 | tipifarnib 0.043 | mubritinib 0.018

SLC25A40 (UniProt Q8TBP6)
inactive: [1] 0.009 | crizotinib -0.023 | [2] 0.028 | [3] -0.027 | duvelisib -0.039 | gandotinib 0.035 | tozasertib 0.003 | [4] -0.069 | doramapimod -0.004 | ispinesib -0.016 | bafetinib -0.019 | [5] -0.028 | nilotinib -0.006 | [6] 0 | dasatinib 0.024 | [7] -0.01 | [8] -0.045 | [9] 0.001 | tipifarnib 0.031 | mubritinib -0.038

Copied from the listing (three entries):
SLC25A17 (UniProt O43808)
inactive: [1] 0.023 | crizotinib 0.071 | [2] 0.002 | [3] -0.127 | duvelisib -0.066 | gandotinib 0.024 | tozasertib 0.024 | [4] 0.008 | doramapimod 0.006 | ispinesib 0.052 | bafetinib 0.022 | [5] 0.032 | nilotinib 0.025 | [6] -0.015 | dasatinib -0.016 | [7] 0.003 | [8] 0.038 | [9] -0.002 | tipifarnib -0.056 | mubritinib 0.038

SLC7A1 (UniProt P30825)
inactive: [1] 0.044 | crizotinib -0.043 | [2] 0.043 | [3] -0.078 | duvelisib 0.088 | gandotinib -0.069 | tozasertib -0.014 | [4] -0.039 | doramapimod 0.001 | ispinesib -0.119 | bafetinib -0.008 | [5] -0.004 | nilotinib 0.009 | [6] -0.007 | dasatinib 0.034 | [7] 0.004 | [8] 0 | [9] -0.013 | tipifarnib 0.043 | mubritinib 0.018

SLC25A40 (UniProt Q8TBP6)
inactive: [1] 0.009 | crizotinib -0.023 | [2] 0.028 | [3] -0.027 | duvelisib -0.039 | gandotinib 0.035 | tozasertib 0.003 | [4] -0.069 | doramapimod -0.004 | ispinesib -0.016 | bafetinib -0.019 | [5] -0.028 | nilotinib -0.006 | [6] 0 | dasatinib 0.024 | [7] -0.01 | [8] -0.045 | [9] 0.001 | tipifarnib 0.031 | mubritinib -0.038

Following part.

SLC25A21 (UniProt Q9BQT8)
inactive: [1] 0.02 | crizotinib 0.085 | [2] 0.022 | [3] -0.021 | duvelisib -0.045 | gandotinib 0.007 | tozasertib -0.007 | [4] -0.099 | doramapimod -0.019 | ispinesib -0.007 | bafetinib -0.088 | [5] -0.039 | nilotinib 0.001 | [6] -0.012 | dasatinib 0.047 | [7] -0.046 | [8] -0.008 | [9] 0.016 | tipifarnib 0.076 | mubritinib 0.035

SLC25A24 (UniProt Q6NUK1)
inactive: [1] 0.024 | crizotinib 0.074 | [2] 0.052 | [3] -0.041 | duvelisib -0.005 | gandotinib 0.024 | tozasertib -0.001 | [4] -0.052 | doramapimod -0.024 | ispinesib 0.008 | bafetinib -0.058 | [5] 0.012 | nilotinib -0.018 | [6] 0.016 | dasatinib 0.036 | [7] -0.03 | [8] 0.02 | [9] 0.035 | tipifarnib 0.046 | mubritinib 0.03

SLC10A4 (UniProt Q96EP9)
inactive: [1] 0.004 | crizotinib 0.122 | [2] -0.08 | [3] 0.013 | duvelisib 0.07 | gandotinib -0.078 | tozasertib 0.01 | [4] -0.047 | doramapimod 0 | ispinesib -0.569 | bafetinib -0.039 | [5] -0.084 | nilotinib -0.409 | [6] 0.078 | dasatinib 0.099 | [7] -0.166 | [8] 0.096 | [9] -0.007 | tipifarnib 0.109 | mubritinib 0.044

SLC12A4 (UniProt Q9UP95)
inactive: [1] -0.019 | crizotinib -0.07 | [2] -0.019 | [3] -0.018 | duvelisib 0.031 | gandotinib -0.035 | tozasertib -0.039 | [4] -0.057 | doramapimod 0.009 | ispinesib -0.215 | bafetinib -0.033 | [5] -0.041 | nilotinib -0.075 | [6] -0.044 | dasatinib 0.021 | [7] -0.051 | [8] 0.016 | [9] -0.022 | tipifarnib 0.032 | mubritinib 0.041

SLC29A2 (UniProt Q14542)
inactive: [1] 0.02 | crizotinib 0.061 | [2] -0.121 | [3] -0.133 | duvelisib -0.058 | gandotinib 0.046 | tozasertib -0.165 | [4] -0.046 | doramapimod 0.038 | ispinesib 0.02 | bafetinib 0.035 | [5] -0.057 | nilotinib 0.049 | [6] -0.068 | dasatinib 0.15 | [7] 0.031 | [8] 0.114 | [9] -0.034 | tipifarnib 0.029 | mubritinib 0.003

SLC4A1AP (UniProt Q9BWU0)
inactive: [1] -0.009 | crizotinib 0.047 | [2] 0.048 | [3] 0.027 | duvelisib 0.075 | gandotinib -0.026 | tozasertib 0.063 | [4] 0.037 | doramapimod -0.019 | ispinesib 0.046 | bafetinib -0.007 | [5] 0.052 | nilotinib -0.003 | [6] -0.085 | dasatinib -0.038 | [7] -0.03 | [8] -0.035 | [9] 0.006 | tipifarnib 0.107 | mubritinib 0.029

SLC25A3 isoform 2 (UniProt Q00325)
inactive: [1] 0.013 | crizotinib 0.092 | [2] 0.028 | [3] -0.075 | duvelisib 0.02 | gandotinib 0.039 | tozasertib 0.016 | [4] -0.022 | doramapimod -0.01 | ispinesib 0.012 | bafetinib -0.024 | [5] -0.033 | nilotinib 0.01 | [6] 0.027 | dasatinib 0.04 | [7] -0.017 | [8] 0.031 | [9] 0.023 | tipifarnib 0.002 | mubritinib 0.004

SLC39A10 (UniProt Q9ULF5)
inactive: [1] 0.034 | crizotinib 0.062 | [2] 0.016 | [3] -0.073 | duvelisib 0.078 | gandotinib -0.005 | tozasertib -0.093 | [4] -0.048 | doramapimod 0.028 | ispinesib 0.072 | bafetinib -0.051 | [5] -0.013 | nilotinib 0.069 | [6] 0.009 | dasatinib 0.059 | [7] 0.024 | [8] 0.088 | [9] -0.036 | tipifarnib 0.06 | mubritinib 0.085

SLC38A5 (UniProt Q8WUX1)
inactive: [1] 0.073 | crizotinib 0.015 | [2] 0.045 | [3] -0.118 | duvelisib 0.073 | gandotinib -0.119 | tozasertib -0.04 | [4] -0.071 | doramapimod 0.004 | ispinesib 0.086 | bafetinib 0.062 | [5] -0.036 | nilotinib 0.002 | [6] -0.017 | dasatinib 0.044 | [7] 0.001 | [8] 0.048 | [9] -0.071 | tipifarnib -0.018 | mubritinib 0.031

SLC35F2 (UniProt Q8IXU6)
inactive: [1] 0.048 | crizotinib 0.121 | [2] -0.005 | [3] -0.206 | duvelisib 0.059 | gandotinib -0.107 | tozasertib 0.101 | [4] -0.059 | doramapimod -0.142 | ispinesib 0.091 | bafetinib -0.015 | [5] 0.043 | nilotinib 0.083 | [6] -0.004 | dasatinib 0.061 | [7] 0.061 | [8] 0.012 | [9] -0.054 | tipifarnib 0.041 | mubritinib 0.027

SLC25A20 (UniProt O43772)
inactive: [1] -0.004 | crizotinib 0.023 | [2] 0.021 | [3] -0.127 | duvelisib 0.039 | gandotinib -0.044 | tozasertib -0.039 | [4] -0.089 | doramapimod -0.024 | ispinesib -0.037 | bafetinib -0.059 | [5] 0.027 | nilotinib -0.016 | [6] 0.015 | dasatinib 0.008 | [7] -0.039 | [8] 0.011 | [9] 0.068 | tipifarnib -0.046 | mubritinib 0.032

SLC20A2 (UniProt Q08357)
inactive: [1] 0.077 | crizotinib -0.011 | [2] 0.055 | [3] -0.041 | duvelisib 0.171 | gandotinib 0.013 | tozasertib -0.075 | [4] 0.021 | doramapimod 0.05 | ispinesib 0.034 | bafetinib -0.035 | [5] -0.111 | nilotinib 0.074 | [6] -0.048 | dasatinib -0.017 | [7] -0.019 | [8] 0.007 | [9] 0.077 | tipifarnib 0 | mubritinib 0.118

Source: the supplement of paper PMC10849652
